In article PMC3689823:
These are yes or no findings as the source states them, for the method shown. In cells and extracts the contact can be indirect. Some entries that bind do so weakly or less than the wild type.

The chains behind the UniProt entries cited, without tags or fusion partners. Residues count along the entry.
UniProt Q06890, residues 22-448: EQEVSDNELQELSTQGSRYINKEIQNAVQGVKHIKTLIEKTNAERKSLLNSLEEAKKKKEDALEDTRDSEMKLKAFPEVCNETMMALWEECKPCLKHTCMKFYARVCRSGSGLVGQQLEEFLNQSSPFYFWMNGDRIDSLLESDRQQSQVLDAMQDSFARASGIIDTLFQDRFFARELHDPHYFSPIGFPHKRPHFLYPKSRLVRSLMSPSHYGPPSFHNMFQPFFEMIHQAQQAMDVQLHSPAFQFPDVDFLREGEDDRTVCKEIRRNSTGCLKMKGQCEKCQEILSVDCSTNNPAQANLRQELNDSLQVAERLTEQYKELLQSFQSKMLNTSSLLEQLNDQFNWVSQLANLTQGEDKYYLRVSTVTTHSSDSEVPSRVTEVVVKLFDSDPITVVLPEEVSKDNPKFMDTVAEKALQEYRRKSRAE

Molecular target: T1, endogenous SelR (mouse cerebral cortex) (mouse (endogenous in cerebral cortex)) (UniProt Q9JLC3)
T1 sequence: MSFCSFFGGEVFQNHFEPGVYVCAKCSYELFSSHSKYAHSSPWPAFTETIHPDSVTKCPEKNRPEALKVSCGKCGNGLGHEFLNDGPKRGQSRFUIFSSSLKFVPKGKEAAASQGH
Assay: co-IP; mouse cerebral cortex lysate in RIPA buffer; IP with SelR antibody overnight at 4°C, Western blot with Clu antibody

With “endogenous Clu (mouse cerebral cortex) (from UniProt Q06890 22-448)” the binding was “binds”.
